Test results reported in publication PMC9581579 (2022).

Molecular target: T1, Gpsm2-FLAG (MBP tag removed) (UniProt P81274)
T1 sequence: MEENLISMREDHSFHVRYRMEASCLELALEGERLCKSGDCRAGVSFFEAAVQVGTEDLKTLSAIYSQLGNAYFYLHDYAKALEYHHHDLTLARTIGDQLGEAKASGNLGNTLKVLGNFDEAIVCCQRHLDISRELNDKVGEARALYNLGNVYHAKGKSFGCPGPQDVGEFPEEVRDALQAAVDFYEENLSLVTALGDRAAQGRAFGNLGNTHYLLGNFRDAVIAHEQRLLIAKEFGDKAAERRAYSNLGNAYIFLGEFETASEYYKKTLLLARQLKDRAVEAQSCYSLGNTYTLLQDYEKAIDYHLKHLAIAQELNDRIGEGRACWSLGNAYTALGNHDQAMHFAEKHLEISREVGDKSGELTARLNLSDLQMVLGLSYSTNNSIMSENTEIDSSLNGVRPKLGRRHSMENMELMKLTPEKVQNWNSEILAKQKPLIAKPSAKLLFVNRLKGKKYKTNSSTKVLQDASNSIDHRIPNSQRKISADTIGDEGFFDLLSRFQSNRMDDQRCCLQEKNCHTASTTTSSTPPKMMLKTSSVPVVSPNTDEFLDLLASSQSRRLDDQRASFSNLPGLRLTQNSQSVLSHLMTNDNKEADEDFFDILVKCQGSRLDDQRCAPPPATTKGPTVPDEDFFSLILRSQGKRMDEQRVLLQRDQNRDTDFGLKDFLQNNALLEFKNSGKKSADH
Test: pull-down; Avi-tagged Gαt* bound to streptactin-agarose beads, incubated with 10 μM Gpsm2-FLAG and/or 20 μM His-HA-thioredoxin-Frmpd1 peptide; 20 mM Tris, 150 mM KCl, 5% glycerol, 1 mM TCEP, 0.5 mg/ml BSA, pH 7.5; blots anti-HA and anti-FLAG; both purified

binding: binds
Substance: His-HA-thioredoxin-Frmpd1 peptide (residues 895–938) (domain or fragment)

Results are given in words; binding and its absence hold for the method and conditions named. Binding calls can cover weak binding; strength is not graded here. Sequences can lack the tags named with a protein.
